{"source": "PubChem BioAssay AID493014", "about": "(National Center for Advancing Translational Sciences (NCATS), 2011)", "note": "In all, about 340,000 compounds went through this assay and about 170 (0.05%) were called active. The inconclusive results got no clear call from the source; some entries with a clear call stand among them for comparison. Calls come from the whole dose curve; as a rule, active = well fitted inhibition curve with a large enough effect in the signal ratio, with a control signal flat (not every such curve was filed as active); inconclusive = small, poorly fitted or top-dose-only effect, or effect the other way, or a change in a side signal; inactive = flat fitted curve, though single readings scatter; the % refers to the signal ratio. Potencies beside an inconclusive call are fits to weak or partial responses and may not hold up. Potency is the fitted concentration of half-maximal effect.", "data": [{"assay": "qHTS Assay to Find Inhibitors of Chronic Active B-Cell Receptor Signaling;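 for activity change, negative = inhibition: plate controls were basal doxycycline-induced cells for no effect and cells given 10 µM MG132 for full effect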", "settings": "ABC-DLBCL IkBa-CBG/CBR reporter, luminescence ratio (green luciferase fused to IkBa over red control in TMD8 lymphoma cells), 4 h; activity change, negative = inhibition: at 46.1 µM (top of the series) unless noted", "method_in_brief": "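TMD8 human ABC-DLBCL cells with doxycycline-inducible IκBα–green luciferase fusion and unfused red luciferase, in 0.5% FBS medium; compounds up to 46 uM, 4 h at 37C. Green/red luminescence ratio, filter-overlap corrected, fitted to concentration-response curves.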", "values": [{"smiles": "Cn1ccnc1C(=O)c1cc(SCC(=O)NC2CC2)nc2ccccc12", "activity change, negative = inhibition": "inactive: -1.66%"}, {"smiles": "O=C(NCCO)c1cc2c([nH]c3ccccc32)c(-c2ccc(F)cc2)n1", "activity change, negative = inhibition": "inconclusive: 5.92%"}, {"smiles": "Cc1cc(Cl)ccc1OCCn1cncn1", "activity change, negative = inhibition": "inconclusive: 1.98%"}, {"smiles": "O=C(CN1CCC(n2nnc3cc(F)ccc32)CC1)Nc1ccc2c(c1)CCC2", "activity change, negative = inhibition": "inactive: -3.4%"}, {"smiles": "COc1ccc(NC(=S)N(CCCN2CCOCC2)Cc2cn(C)c3ccccc23)cc1", "activity change, negative = inhibition": "inconclusive: -0.931%"}, {"smiles": "CC(C)C(=O)NC(=S)Nc1ccc(S(=O)(=O)N2CCCC2)cc1", "activity change, negative = inhibition": "inactive: 1.32%"}, {"smiles": "O=C(N/N=C/c1ccc2ccccc2c1)c1ccc(COc2ccc3c(c2)CCC3)o1", "Potency": "inconclusive: 1.26 µM [falling, partial curve]"}, {"smiles": "COc1ccc(C2CNC(=O)C2)cc1OC1CCCC1", "note": "(stereo not drawn)", "activity change, negative = inhibition": "inconclusive: 1.96%"}, {"smiles": "O=C1/C(=C/c2ccccn2)SC(=S)N1N1CCOCC1", "activity change, negative = inhibition": "inconclusive: 0.578%"}, {"smiles": "Cc1c(C(=O)N/N=C/c2ccc(Cl)cc2)[nH]c2ccc(Cl)cc12", "Potency": "inconclusive: 5.8 µM [falling, partial curve]"}, {"smiles": "O=C(Nc1cnc2ccccc2c1)c1ccncc1", "Potency": "inconclusive: 18.4 µM [falling, single point]"}, {"smiles": "O=c1c(O)c(-c2ccc(O)cc2O)oc2cc(O)cc(O)c12", "Potency": "inconclusive: 20.6 µM [falling, partial curve]"}, {"smiles": "Cn1cc(NC(=O)Nc2ccc(C(F)(F)F)cc2)c(C(F)(F)F)n1", "activity change, negative = inhibition": "inactive: -1.45%"}, {"smiles": "O=C1CC(N2CCN(C/C=C/c3ccccc3)CC2)C(=O)N1Cc1cccs1", "note": "(stereo not drawn)", "activity change, negative = inhibition": "inconclusive: -6.7%"}, {"smiles": "COc1cccc2c(=O)c(C/C=C(/C)Cl)c(C)[nH]c12", "activity change, negative = inhibition": "inactive: 18.6%"}, {"smiles": "O=C(c1cn(Cc2ccccc2)nc1-c1cccnc1)N1CCc2ccccc2C1", "activity change, negative = inhibition": "inactive: 0.217%"}, {"smiles": "COc1ccc2c(C#CCCO)c(-c3ccc(S(C)(=O)=O)cc3)sc2c1", "activity change, negative = inhibition": "inconclusive: -8.21%"}, {"smiles": "CC(C)CN1C(=O)c2ccc(C(=O)Nc3ccccn3)cc2C1=O", "Potency": "inconclusive: 3.55 µM [falling, single point]"}, {"smiles": "COCCN(C(=S)Nc1ccccc1OC)C1CCN(C(C)=O)CC1", "activity change, negative = inhibition": "inactive: 9.1%"}, {"smiles": "O=C(COC(=O)CCC(=O)c1cccs1)Nc1ccccc1C(F)(F)F", "activity change, negative = inhibition": "inactive: 1.22%"}, {"smiles": "Cn1cc(/C(Cc2ccccc2)=N\\O)c2ccccc21", "activity change, negative = inhibition": "inconclusive: 0.514%"}, {"smiles": "Cc1cccc(C)c1NC(=O)Nc1cccs1", "Potency": "inconclusive: 2.31 µM [falling, partial curve, poor fit]"}, {"smiles": "CN(C)c1ccc(C(CNC(=O)c2ccco2)N2CCCC2)cc1", "note": "(stereo not drawn)", "activity change, negative = inhibition": "inactive: 1.6%"}, {"smiles": "CCn1c(SCC(=O)Nc2ccc(-c3nc4ccc(C)cc4s3)cc2)nnc1-c1ccccc1", "activity change, negative = inhibition": "inconclusive: 5.87%"}, {"smiles": "CCC1CCCCN1CCCNC(=O)C1CCN(Cc2nc(-c3ccc(Cl)cc3)oc2C)CC1", "note": "(stereo not drawn)", "Potency": "inconclusive: 20 µM [falling, partial curve, poor fit]"}, {"smiles": "CC1Cc2cc(S(=O)(=O)N3CCCC(C(=O)N4CCCCC4)C3)ccc2N1C(=O)C1CC1", "note": "(stereo not drawn)", "activity change, negative = inhibition": "inactive: -1.18%"}, {"smiles": "O=C(c1ccc(=O)[nH]n1)N1CCN(S(=O)(=O)c2ccc3ccccc3c2)CC1", "Potency": "inconclusive: 10 µM [falling, partial curve, poor fit]"}, {"smiles": "COc1ccc(/C=N/NC(=O)c2cccc(NC(C)=O)c2)c(OC)c1", "Potency": "inconclusive: 22.4 µM [falling, partial curve]"}, {"smiles": "Cc1ccccc1CNC1CCCCC1", "activity change, negative = inhibition": "inactive: 1.98%"}, {"smiles": "Cc1cc(C(=O)N/N=C/c2sccc2C)no1", "Potency": "inconclusive: 18.4 µM [falling, single point]"}, {"smiles": "Oc1c(C(Nc2cccc(C(F)(F)F)c2)c2ccncc2)ccc2cccnc12", "note": "(stereo not drawn)", "Potency": "inconclusive: 3.55 µM [falling, full curve]"}, {"smiles": "Cn1c(=O)c2c(ncn2CC(=O)Nc2ccccc2Sc2ccccc2)n(C)c1=O", "activity change, negative = inhibition": "inconclusive: -1.81%"}, {"smiles": "COc1ccc(OC)c(NC(=O)C(CCS(C)(=O)=O)NC(C)=O)c1", "note": "(stereo not drawn)", "activity change, negative = inhibition": "inconclusive: -6.18%"}, {"smiles": "CCOC(=O)C1Cc2ccccc2CN1", "note": "(stereo not drawn)", "activity change, negative = inhibition": "inactive: -1.42%"}, {"smiles": "CCC1CN(C(=O)N2CCC(C(=O)NCc3ccccc3C)CC2)c2ccccc2O1", "note": "(stereo not drawn)", "activity change, negative = inhibition": "inactive: 2.27%"}, {"smiles": "COc1ccc(C(=O)COC(=O)Cn2c(C)csc2=O)c(OC)c1", "activity change, negative = inhibition": "inconclusive: 13.5%"}, {"smiles": "COc1nsnc1N1CCOCC1", "activity change, negative = inhibition": "inactive: -4.28%"}, {"smiles": "CC(C)OCCCNc1ncnc2c1[nH]c1ccccc12", "activity change, negative = inhibition": "inconclusive: -5.23%"}, {"smiles": "Cc1cc(=O)n2[nH]c(C)c(-c3ccccc3)c2n1", "activity change, negative = inhibition": "inactive: 0.279%"}, {"smiles": "Nc1nc(Nc2ccccc2)nc(NC2CCCCC2)c1[N+](=O)[O-]", "activity change, negative = inhibition": "inconclusive: -0.757%"}, {"smiles": "CCCN1CCC(NC(=S)Nc2ccc(S(N)(=O)=O)cc2)CC1", "activity change, negative = inhibition": "inconclusive: -1.72%"}, {"smiles": "CCOc1ccc(N(CC(=O)Nc2ccc(C)cc2)S(C)(=O)=O)cc1", "activity change, negative = inhibition": "inactive: 0.669%"}, {"smiles": "Nc1nnc(SCC(=O)Nc2cc(S(=O)(=O)N3CCOCC3)ccc2N2CCCC2)s1", "activity change, negative = inhibition": "inconclusive: -0.164%"}]}]}
